Experimental data as given in PubChem BioAssay AID624297 (National Center for Advancing Translational Sciences (NCATS), 2012).
The campaign covered roughly 340,000 compounds. About 6,200 (1.8%) were called active. Inconclusive results, whose numbers are uncertain, are shown with a selection of clear calls. Calls come from the whole dose curve; as a rule, active = well fitted activation curve with a large enough effect; inconclusive = small, poorly fitted or top-dose-only effect; inactive = no such curve, though single readings can be large or run the other way. Potencies beside an inconclusive call are fits to weak or partial responses and may not hold up.

test: A quantitative high throughput screen for small molecules that induce DNA re-replication in SW480 colon adenocarcinoma cells.; note: nearly all actives have a fitted effect of over 55% in size; for re-replication activation: % of control where 0% means no effect; settings: Hoechst DNA content imaging, 48 h; re-replication activation: at 46.1 µM (top of the series) unless noted
In short: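 Hoechst fluorescence of nuclei (405 nm excitation, 500-530 nm emission) measured by plate-scanning imager after 48 hr compound exposure at 37 C; re-replication scored as increased number of nuclei with elevated intensity.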
Potency is the fitted concentration of half-maximal effect.

Q: Which “re-replication activation” value does the source give for `CC(=O)c1ccccc1NC(=O)CSCc1nc2sc(C)c(C)c2c(=O)[nH]1` here?
A: inactive: -5.02%

Q: For `COc1ccccc1C(=O)NCC(=O)N1CCN(S(=O)(=O)c2ccc3c(c2)OCCO3)CC1`, which “re-replication activation” value is on record?
A: inactive: -7.57%

Q: With `COc1cccc(/C=N/Nc2ncccc2[N+](=O)[O-])c1OC` as the compound, how does the “re-replication activation” value read?
A: inactive: 12.7%

Q: Which Potency does the source give for `O=C1/C(=C/c2ccccc2F)SC(=S)N1CCC(=O)N1CCCCC1CCO` (stereo not drawn) here?
A: inconclusive: 15.8 µM [activator, single point]

Q: Which Potency does the source give for `CC[C@H](C)[C@H]1CNC(=O)C(=O)N1CC1CCN(CCCc2ccc(OC)c(OC)c2)CC1` here?
A: inconclusive: 0.82 µM [activator, partial curve, poor fit]

Q: Which Potency does the source give for `Cc1nn(C)c(C)c1NS(=O)(=O)c1ccccc1Cl` here?
A: inconclusive: 3.66 µM [activator, partial curve, poor fit]

Q: With `COCCNC(=O)c1cc2sc3ccccc3c2s1` as the compound, how does the “re-replication activation” value read?
A: inactive: -4.9%

Q: Which Potency does the source give for `O=C(O)c1cn(-c2ccc(N3CCCC3)c(F)c2)c2c(F)c(F)c(F)cc2c1=O` here?
A: inconclusive: 16.4 µM [activator, single point]

Q: With `COC(=O)c1sc(N2C(=O)C(O)=C(C(=O)c3ccc(C)o3)C2c2cccs2)nc1C` (stereo not drawn) as the compound, how does the Potency read?
A: inconclusive: 3.26 µM [activator, full curve, poor fit]

Q: With `Cc1cc(Cl)ccc1OCC(=O)N1CCCCC1` as the compound, how does the “re-replication activation” value read?
A: inactive: -14.4%

Q: For `COc1cc(C(=O)N(CCN(C)C)CC2CCCN(Cc3ccccc3F)C2)ccc1C` (stereo not drawn), which Potency is on record?
A: inconclusive: 32.6 µM [activator, single point]

Q: For `O=C(Nc1ccc(F)c(F)c1)c1ccc(-n2cncn2)c([N+](=O)[O-])c1`, which “re-replication activation” value is on record?
A: inactive: -19.8%

Q: For `O=c1[nH]c(CSc2nnc(Nc3ccccc3)s2)nc2ccccc12`, which Potency is on record?
A: active: 16.4 µM

Q: For `O=C(Cc1ccccc1F)Nc1nc(-c2ccc(F)c(F)c2)cs1`, which Potency is on record?
A: inconclusive: 20.6 µM [activator, single point]

Q: With `CCOC(=O)C1=C(C)C(c2ccc(OC)cc2)NC(=S)N1` (stereo not drawn) as the compound, how does the Potency read?
A: inconclusive: 18.4 µM [activator, single point]

Q: Which “re-replication activation” value does the source give for `CCN(C(=O)CSc1n[nH]c(-c2ccc(OC)cc2)n1)c1c(N)n(Cc2ccccc2)c(=O)[nH]c1=O` here?
A: inactive: 2%

Q: For `CCOC(=O)N1CCC(NC(=O)c2ccc3c(c2)N(Cc2ccc(C)cc2)CCS3)CC1`, which “re-replication activation” value is on record?
A: inactive: -0.631%

Q: With `CCOc1ccc2c(c1)C(c1ccc(C)cc1)=NNC(c1ccc(C)cc1)=N2` as the compound, how does the Potency read?
A: inconclusive: 29.1 µM [activator, single point]

Q: With `CC1CCN(CC(O)COC2CC(C)CCC2C(C)C)CC1` (stereo not drawn) as the compound, how does the Potency read?
A: inconclusive: 20.6 µM [activator, single point]

Q: For `CC1(C)Cc2cccc(OCC(=O)NCCc3ccccc3)c2O1`, which “re-replication activation” value is on record?
A: inactive: -7.02%

Q: With `CNC(=O)/C(C#N)=C/c1c(N2CCN(c3ccccc3)CC2)nc2c(C)cccn2c1=O` as the compound, how does the Potency read?
A: inconclusive: 2.31 µM [activator, full curve, poor fit]

Q: With `O=C(NNc1ccc(Cl)nn1)c1ccc(Cl)cc1` as the compound, how does the Potency read?
A: inconclusive: 29.1 µM [activator, partial curve, poor fit]

Q: With `CCCn1c(=O)c(C(=O)Nc2ccccc2C(=O)OCC)c(O)c2ccccc21` as the compound, how does the Potency read?
A: inconclusive: 31.6 µM [activator, single point]

Q: With `Cc1ccc2[nH]c3c(c2c1)CN(C(=O)CN1CCCc2ccccc21)CC3` as the compound, how does the Potency read?
A: inconclusive: 18.4 µM [activator, single point]

Q: Which “re-replication activation” value does the source give for `CCOC(=O)C1=C(Nc2ccccc2)CC(C)(O)C(C(=O)OCC)C1c1ccccc1` (stereo not drawn) here?
A: inactive: 0.0486%

Q: For `COc1cc2c3nnc(-c4ccc(F)cc4)c-3cn(Cc3ccccc3F)c2cc1OC`, which Potency is on record?
A: inconclusive: 29.1 µM [activator, single point]

Q: With `Cc1ccccc1OCc1nc(-c2ccc(-n3cccc3)cc2)no1` as the compound, how does the “re-replication activation” value read?
A: inactive: -3.05%

Q: With `Cc1[nH]n(-c2ccccc2)c(=O)c1N=Nc1ccccc1O` as the compound, how does the Potency read?
A: inconclusive: 4.61 µM [activator, single point]

Q: With `O=C(Nc1cccc(C(F)(F)F)c1)c1cc(Br)cc(Br)c1O` as the compound, how does the Potency read?
A: inconclusive: 26.6 µM [activator, partial curve, poor fit]

Q: With `O=C(NCCN1CCOCC1)C1CC(=O)N(c2cccc(C(F)(F)F)c2)C1` (stereo not drawn) as the compound, how does the “re-replication activation” value read?
A: inactive: 1.25%

Q: Which “re-replication activation” value does the source give for `CCOC(=O)c1c(C)[nH]c(C)c1S(=O)(=O)N1CCCCC1` here?
A: inactive: -6.98%

Q: With `Cc1c(Cl)cccc1NC(=S)N1CCCN(Cc2ccc(F)cc2)C1` as the compound, how does the Potency read?
A: inconclusive: 29.1 µM [activator, single point]

Q: Which Potency does the source give for `CC12CCC(C/C1=N\N=C1\NC(=O)/C(=C\c3ccc(Cl)cc3)S1)C2(C)C` (stereo not drawn) here?
A: inconclusive: 20.6 µM [activator, single point]

Q: Which Potency does the source give for `COc1cc(CNCCc2ccc(S(N)(=O)=O)cc2)ccc1OCc1ccc(Cl)cc1` here?
A: inconclusive: 9.2 µM [activator, partial curve]

Q: With `OCCCNc1nc(-c2ccccc2)c2cc(Cl)ccc2n1` as the compound, how does the Potency read?
A: inconclusive: 23.1 µM [activator, single point]

Q: For `O=c1c2ccccc2ncn1-c1ccc([N+](=O)[O-])cc1[N+](=O)[O-]`, which Potency is on record?
A: inconclusive: 18.4 µM [activator, single point]

Q: Which Potency does the source give for `CCC(CC)C(=O)Nc1ccc(-c2cn3cccnc3n2)cc1` here?
A: inconclusive: 3.66 µM [activator, full curve, poor fit]

Q: Which Potency does the source give for `Nc1nc2c(c(=O)[nH]1)N(C=O)[C@H](CNc1ccc(C(=O)N[C@@H](CCC(=O)O)C(=O)O)cc1)CN2` here?
A: inconclusive: 7.18 µM [activator, full curve, poor fit]

Q: With `CCOC(=O)c1c(NC(=O)COC(=O)c2ncc(Cl)c(Cl)c2Cl)sc(C(=O)N(C)C)c1C` as the compound, how does the “re-replication activation” value read?
A: inactive: -8.54%

Q: For `Oc1ccc(C[C@H]2CNC(=S)N2CC2CCCN2C[C@H](Cc2ccc(O)cc2)N2C[C@H](Cc3ccccc3)N(CCc3ccccc3)C2=S)cc1` (stereo partly drawn), which Potency is on record?
A: inconclusive: 5.17 µM [activator, single point]

Q: For `Cc1cc(C)c(C)c(C(=O)C2OC(=O)C(C)(C)C(=O)C2(C)C)c1C` (stereo not drawn), which Potency is on record?
A: inconclusive: 5.8 µM [activator, partial curve, poor fit]

Q: Which “re-replication activation” value does the source give for `O=C(/C=C/c1ccccc1)n1cnnc1SC/C=C/c1ccccc1` here?
A: inactive: -3.33%

Q: For `Cc1ccc(C)c(S(=O)(=O)N2CCN(C(=O)Cn3[nH]c(=O)c4ccccc4c3=O)CC2)c1`, which Potency is on record?
A: inconclusive: 18.4 µM [activator, single point]
